Laboratory results published in US20260216379A1.
No constants are given. Whether binding was seen depends on the method and setting. Some results given as binding are weak or reduced against the parent protein; the word gives no strength.

By UniProt entry, the sequences of proteins in these tests, tags left out.
UniProt Q04609: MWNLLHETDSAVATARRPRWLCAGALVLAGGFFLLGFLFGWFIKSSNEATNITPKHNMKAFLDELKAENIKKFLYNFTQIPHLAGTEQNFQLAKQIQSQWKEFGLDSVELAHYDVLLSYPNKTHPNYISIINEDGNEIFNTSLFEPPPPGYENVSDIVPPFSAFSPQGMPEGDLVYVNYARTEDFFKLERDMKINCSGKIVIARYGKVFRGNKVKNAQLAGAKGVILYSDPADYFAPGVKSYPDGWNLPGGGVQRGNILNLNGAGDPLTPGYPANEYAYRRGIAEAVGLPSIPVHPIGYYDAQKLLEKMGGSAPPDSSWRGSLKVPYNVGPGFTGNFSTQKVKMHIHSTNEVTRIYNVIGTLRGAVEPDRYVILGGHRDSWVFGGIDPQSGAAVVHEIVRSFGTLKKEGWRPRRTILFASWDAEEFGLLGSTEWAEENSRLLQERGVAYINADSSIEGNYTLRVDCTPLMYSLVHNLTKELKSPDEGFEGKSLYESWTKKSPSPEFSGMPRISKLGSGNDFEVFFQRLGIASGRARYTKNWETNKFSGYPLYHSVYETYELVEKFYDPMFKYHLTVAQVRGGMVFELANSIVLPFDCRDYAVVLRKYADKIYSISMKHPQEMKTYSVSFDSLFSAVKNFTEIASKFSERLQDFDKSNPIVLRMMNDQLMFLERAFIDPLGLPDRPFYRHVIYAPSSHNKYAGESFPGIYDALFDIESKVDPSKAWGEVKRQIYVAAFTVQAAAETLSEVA

What was measured:
PSMA [1] = target: PSMA (UniProt Q04609); experiment: indirect ELISA on coated LNCaP cell lysate, Hill fit
PSMA [2] = target: PSMA (UniProt Q04609); experiment: indirect ELISA on coated LNCaP cell lysate, 0-100 µM agent
PSMA [3] = target: PSMA (UniProt Q04609); experiment: fluorescence anisotropy, 10 nM fluorescein-labelled agent with LNCaP cell lysate
PSMA [4] = target: PSMA (UniProt Q04609); experiment: fluorescence anisotropy, fluorescein-labelled agent
PSMA [5] = target: PSMA (UniProt Q04609); experiment: fluorescence anisotropy (FIG. 8B)
PSMA [6] = target: PSMA (UniProt Q04609); experiment: fluorescence anisotropy (FIG. 12A)
PSMA [7] = target: PSMA (UniProt Q04609); experiment: fluorescence anisotropy (FIG. 8A)

| binding (PSMA [1]) | binding (PSMA [2]) | binding (PSMA [3]) | binding (PSMA [4]) | binding (PSMA [5]) | binding (PSMA [6]) | binding (PSMA [7]) | Binder |
| --- | --- | --- | --- | --- | --- | --- | --- |
| binds | binds | binds | binds | binds | binds |  | ProCA32.564.PSMA (designed binder, not shown: small tags and cut ends) MSMTDLLNAEDIKKAVGAFSATDSFDHKKFFQMVGLKKKSADDVKKVFHMLDKDKDGFIEEDELGFILKGFSPDARDLSAKETKMLMAAGDKDGDGKIGVEEWSTLVAESLSFFSCWLRRSFSLT |
|  |  |  | binds |  |  | binds | ProCA32.562.PSMA (designed binder, not shown: small tags and cut ends) MSMTDLLNAEDIKKAVGAFSATDSFDHKKFFQMVGLKKKSADDVKKVFHMLDKDKDGFIEEDELGFILKGFSPDARDLSAKETKMLMAAGDKDGDGKIGVEEWSTLVAESSHSFSVGSGDHSPFT |
|  | binds |  |  |  |  |  | ProCA32.WP.PSMA (designed binder, not shown: small tags and cut ends) MSMTDLLNAEDIKKAVGAFSATDSFDHKKFFQMVGLKKKSADDVKKVFHMLDKDKDGFIEEDELGFILKGFSPDARDLSAKETKMLMAAGDKDGDGKIGVEEWSTLVAESAEWWQPDTAHHWATLPDP |
